In the supplement of paper PMC4604168 (melanoma cell lines):
Some of the results follow. Single values are uncertain, as repeats are few or missing.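 The apoptosis fraction was the count of cleaved-PARP antibody-stained nuclei relative to all DNA-stained nuclei, imaged in 1,536-well plates. Screening doses were set so most cells survived, and baseline and induced cleaved-PARP levels vary greatly across cell lines.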

Test system: LB2518-MEL
Assay: cleaved PARP positive nuclei fraction relative to DMSO control; melanoma cells; higher = more apoptosis
Conditions: library dose: low library concentration; 72 h

SMILES | cleaved PARP positive nuclei fraction [%]
OCCn1cc(-c2cnc3nnn(Cc4ccc5ncccc5c4)c3n2)cn1 + Cc1cc([N+](=O)[O-])ccc1NS(=O)(=O)c1cc(Cl)ccc1Cl [FH535] (first compound 1 µM, partner dose 1 µM) | 73.6
Nc1cccc2c1CN(C1CCC(=O)NC1=O)C2=O (stereo unspecified) [lenalidomide] + CCN(CC)CCCCNc1ncc2cc(-c3cc(OC)cc(OC)c3)c(NC(=O)NC(C)(C)C)nc2n1 [PD173074] (first compound 1 µM, partner dose 0.1 µM) | 51.9
C[C@@H]1CCN(C(=O)CC#N)C[C@@H]1N(C)c1ncnc2[nH]ccc12 + O=C(O)C(=O)Nc1sc2c(c1C(=O)O)CCNC2 [TCS401] (first compound 1 µM, partner dose 1.66667 µM) | 94.1
OCCn1cc(-c2cnc3nnn(Cc4ccc5ncccc5c4)c3n2)cn1 + COc1ccc2c(c1)CCC1C2CCC2(C)C(NCCCCCCN3C(=O)C=CC3=O)CCC12 [U73122] (first compound 1 µM, partner dose 0.4 µM) | 80.2
Cc1cc(N2CCOCC2)cc2[nH]c(-c3c(NC[C@@H](O)c4cccc(Cl)c4)cc[nH]c3=O)nc12 + O=C(Nc1ccccc1)c1cc([N+](=O)[O-])ccc1Cl [GW9662] (first compound 0.2 µM, partner dose 2 µM) | 86.6
Nc1cccc2c1CN(C1CCC(=O)NC1=O)C2=O (stereo unspecified) [lenalidomide] + O=C(Nc1ccccc1)c1cc([N+](=O)[O-])ccc1Cl [GW9662] (first compound 1 µM, partner dose 2 µM) | 96.9
